Measured values taken from paper doi:10.1101/2024.07.16.603715.
Like-named read-outs stand apart in the source and are kept apart here. No constants are given. Whether binding was seen depends on the method and setting. In cells and extracts the contact can be indirect. Some entries that bind do so weakly or less than the wild type.

Sequences of proteins named here, by UniProt entry; tags and fusion partners are left off. Residues count along the entry.
UniProt B0V2N1, residues 30-1907: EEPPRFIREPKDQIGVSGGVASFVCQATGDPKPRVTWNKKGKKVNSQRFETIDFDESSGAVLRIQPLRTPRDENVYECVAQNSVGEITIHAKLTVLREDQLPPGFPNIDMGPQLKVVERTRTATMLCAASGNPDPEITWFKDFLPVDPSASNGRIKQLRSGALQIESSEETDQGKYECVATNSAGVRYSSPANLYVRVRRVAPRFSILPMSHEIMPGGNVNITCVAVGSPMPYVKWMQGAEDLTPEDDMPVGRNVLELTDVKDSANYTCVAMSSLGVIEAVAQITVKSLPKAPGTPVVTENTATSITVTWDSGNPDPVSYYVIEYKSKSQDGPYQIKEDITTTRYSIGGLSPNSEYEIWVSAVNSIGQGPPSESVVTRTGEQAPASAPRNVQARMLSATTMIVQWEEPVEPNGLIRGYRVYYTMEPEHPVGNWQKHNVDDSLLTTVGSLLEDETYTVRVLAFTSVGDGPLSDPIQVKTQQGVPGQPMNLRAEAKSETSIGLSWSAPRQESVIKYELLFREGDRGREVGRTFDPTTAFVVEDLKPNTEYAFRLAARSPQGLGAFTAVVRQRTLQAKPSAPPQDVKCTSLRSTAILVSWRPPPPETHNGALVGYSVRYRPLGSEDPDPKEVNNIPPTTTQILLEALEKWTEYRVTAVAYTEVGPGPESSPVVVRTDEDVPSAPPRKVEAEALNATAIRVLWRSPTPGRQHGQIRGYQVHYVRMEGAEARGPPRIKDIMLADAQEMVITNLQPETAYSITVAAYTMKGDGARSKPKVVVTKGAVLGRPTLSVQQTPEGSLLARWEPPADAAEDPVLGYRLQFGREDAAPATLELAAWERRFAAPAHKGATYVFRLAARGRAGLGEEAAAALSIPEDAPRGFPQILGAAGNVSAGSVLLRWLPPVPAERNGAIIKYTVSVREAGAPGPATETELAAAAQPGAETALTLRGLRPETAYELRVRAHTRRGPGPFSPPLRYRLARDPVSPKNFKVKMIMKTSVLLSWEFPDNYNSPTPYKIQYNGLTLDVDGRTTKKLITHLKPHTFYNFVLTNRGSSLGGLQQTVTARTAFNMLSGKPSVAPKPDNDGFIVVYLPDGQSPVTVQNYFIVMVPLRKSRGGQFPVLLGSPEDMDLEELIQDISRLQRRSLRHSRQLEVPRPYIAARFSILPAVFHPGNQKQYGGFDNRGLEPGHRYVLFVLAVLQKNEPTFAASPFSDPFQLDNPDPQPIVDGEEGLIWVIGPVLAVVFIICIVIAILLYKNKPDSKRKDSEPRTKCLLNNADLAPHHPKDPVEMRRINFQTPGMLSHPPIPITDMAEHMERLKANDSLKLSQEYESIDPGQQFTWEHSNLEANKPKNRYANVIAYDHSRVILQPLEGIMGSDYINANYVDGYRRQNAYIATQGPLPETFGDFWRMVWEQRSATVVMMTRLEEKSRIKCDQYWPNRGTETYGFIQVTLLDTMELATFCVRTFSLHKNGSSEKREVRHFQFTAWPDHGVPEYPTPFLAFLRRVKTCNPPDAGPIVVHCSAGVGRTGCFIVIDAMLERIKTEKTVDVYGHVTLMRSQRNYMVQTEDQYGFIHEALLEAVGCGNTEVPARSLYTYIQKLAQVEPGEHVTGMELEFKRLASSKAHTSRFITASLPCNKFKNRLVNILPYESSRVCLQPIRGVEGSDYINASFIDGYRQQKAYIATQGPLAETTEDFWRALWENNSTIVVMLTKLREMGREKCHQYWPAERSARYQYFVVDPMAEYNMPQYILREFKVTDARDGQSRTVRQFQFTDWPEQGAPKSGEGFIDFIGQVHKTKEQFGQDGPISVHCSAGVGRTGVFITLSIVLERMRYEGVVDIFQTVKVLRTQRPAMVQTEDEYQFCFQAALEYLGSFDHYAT
UniProt Q6P9K9, residues 28-1571: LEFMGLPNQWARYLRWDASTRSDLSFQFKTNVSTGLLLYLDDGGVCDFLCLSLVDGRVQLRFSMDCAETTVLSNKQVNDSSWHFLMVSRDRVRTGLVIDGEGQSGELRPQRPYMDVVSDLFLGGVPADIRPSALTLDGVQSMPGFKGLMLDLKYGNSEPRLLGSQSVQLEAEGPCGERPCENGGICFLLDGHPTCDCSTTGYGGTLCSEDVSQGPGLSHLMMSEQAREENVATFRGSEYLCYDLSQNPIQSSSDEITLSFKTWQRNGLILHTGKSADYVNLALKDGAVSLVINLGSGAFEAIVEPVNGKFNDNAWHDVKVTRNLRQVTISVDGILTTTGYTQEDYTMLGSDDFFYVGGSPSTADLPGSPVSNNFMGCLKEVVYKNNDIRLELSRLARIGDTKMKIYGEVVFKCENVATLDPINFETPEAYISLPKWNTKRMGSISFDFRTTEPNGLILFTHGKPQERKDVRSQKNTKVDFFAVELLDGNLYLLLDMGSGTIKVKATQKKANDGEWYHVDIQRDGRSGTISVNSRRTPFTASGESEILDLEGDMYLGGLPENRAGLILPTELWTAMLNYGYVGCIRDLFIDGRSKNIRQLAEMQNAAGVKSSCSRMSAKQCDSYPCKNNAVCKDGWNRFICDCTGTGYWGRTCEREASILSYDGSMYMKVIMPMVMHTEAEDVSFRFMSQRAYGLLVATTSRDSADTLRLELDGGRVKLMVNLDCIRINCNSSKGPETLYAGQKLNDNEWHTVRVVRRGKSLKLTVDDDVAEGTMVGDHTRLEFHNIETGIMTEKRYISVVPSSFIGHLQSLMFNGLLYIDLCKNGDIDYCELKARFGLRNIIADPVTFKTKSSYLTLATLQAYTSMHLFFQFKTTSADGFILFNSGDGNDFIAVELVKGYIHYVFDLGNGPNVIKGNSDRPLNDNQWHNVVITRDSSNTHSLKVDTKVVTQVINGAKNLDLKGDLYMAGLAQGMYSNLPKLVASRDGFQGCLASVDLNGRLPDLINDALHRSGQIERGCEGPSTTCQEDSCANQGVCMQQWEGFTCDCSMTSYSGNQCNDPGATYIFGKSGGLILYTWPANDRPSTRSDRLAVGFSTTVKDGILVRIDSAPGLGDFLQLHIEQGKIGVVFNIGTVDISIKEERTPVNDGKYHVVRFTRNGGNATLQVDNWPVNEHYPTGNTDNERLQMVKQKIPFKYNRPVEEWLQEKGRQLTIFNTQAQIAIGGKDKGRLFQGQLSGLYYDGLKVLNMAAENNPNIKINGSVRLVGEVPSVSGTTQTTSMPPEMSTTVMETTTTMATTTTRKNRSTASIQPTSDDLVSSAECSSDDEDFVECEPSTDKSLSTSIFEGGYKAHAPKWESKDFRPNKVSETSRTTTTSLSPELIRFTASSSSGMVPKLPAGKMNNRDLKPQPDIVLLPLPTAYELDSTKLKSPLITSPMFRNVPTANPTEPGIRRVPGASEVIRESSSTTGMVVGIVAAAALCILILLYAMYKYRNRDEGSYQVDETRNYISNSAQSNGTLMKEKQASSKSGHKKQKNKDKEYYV

What was measured:
[1] = target: V5-tagged PTPRS (UniProt B0V2N1); assay: co-IP
[2] = target: V5-tagged PTPRS (UniProt B0V2N1); assay: co-IP; remark: listed apart in the source

## HA-tagged NRX3A (from UniProt Q6P9K9 28-1571)
[1]
  binding: binds
[2]
  binding: binds weakly
